# Measurements reported in the supplement of paper PMC11438910.
# Some of the results follow. Only a few entries rise above the background.
# Experiments:
# Test in all cases: fluorescence intensity of antibody binding to polysaccharide-coupled beads; higher = stronger binding
# [1] = molecular target: pneumococcal polysaccharide Pn11F
# [2] = molecular target: pneumococcal polysaccharide Pn12A
# [3] = molecular target: pneumococcal polysaccharide Pn12B
# [4] = molecular target: pneumococcal polysaccharide Pn12F
# [5] = molecular target: pneumococcal polysaccharide Pn13
# [6] = molecular target: pneumococcal polysaccharide Pn14
# [7] = molecular target: pneumococcal polysaccharide Pn15A
# [8] = molecular target: pneumococcal polysaccharide Pn15B
# [9] = molecular target: pneumococcal polysaccharide Pn15C
# [10] = molecular target: pneumococcal polysaccharide Pn15F
# [11] = molecular target: pneumococcal polysaccharide Pn16A
# [12] = molecular target: pneumococcal polysaccharide Pn16F
# [13] = molecular target: pneumococcal polysaccharide Pn17A
# [14] = molecular target: pneumococcal polysaccharide Pn17F
# [15] = molecular target: pneumococcal polysaccharide Pn18A
# [16] = molecular target: pneumococcal polysaccharide Pn18B
# [17] = molecular target: pneumococcal polysaccharide Pn18C
# [18] = molecular target: pneumococcal polysaccharide Pn18F
# [19] = molecular target: pneumococcal polysaccharide Pn19A
# [20] = molecular target: pneumococcal polysaccharide Pn19B
# [21] = molecular target: pneumococcal polysaccharide Pn19C
# [22] = molecular target: pneumococcal polysaccharide Pn19F
# [23] = molecular target: pneumococcal polysaccharide Pn2
# [24] = antibody concentration 2.8593 ng/mL
# [25] = antibody concentration 15.2894 ng/mL
# [26] = antibody concentration 81.7561 ng/mL
# [27] = antibody concentration 437.17 ng/mL
# [28] = antibody concentration 2337.65 ng/mL
# [29] = antibody concentration 12500 ng/mL
# [30] = antibody concentration 0.1 ng/mL
# [31] = antibody concentration 0.534724 ng/mL
binder,measurement,setting,value
4-127.5 (protein) chain 1: QVQLQESGPGLVKPSETLSLTCAVSGYSISSGYGWSWIRQPPGKGLEWIGYIGGSDSSTNYNPSLKSRVTISKDTSKNQLSLKLRSVTAADTAVYYCGSRGAVAGLGGLDSWGQGLLVTVSS chain 2: QSVLTQPPSVSGAPGQRVTISCTGSSSNIGAGYGVQWYQQLPGTAPKLLIYENNKRPSGVFDRFSGSQSGTSGSLTITGLQSEDEADYYCQSYDSSLKAVLFGGGTRLTVL,fluorescence intensity,[1]; [24],15 MFI
same,fluorescence intensity,[1]; [25],13.5 MFI
same,fluorescence intensity,[1]; [26],16.5 MFI
same,fluorescence intensity,[1]; [27],15 MFI
same,fluorescence intensity,[1]; [28],17.5 MFI
same,fluorescence intensity,[1]; [29],29 MFI
same,fluorescence intensity,[2]; [30],16 MFI
same,fluorescence intensity,[2]; [31],16.5 MFI
same,fluorescence intensity,[2]; [24],15.5 MFI
same,fluorescence intensity,[2]; [25],15 MFI
same,fluorescence intensity,[2]; [26],15 MFI
same,fluorescence intensity,[2]; [27],17.8 MFI
same,fluorescence intensity,[2]; [28],21.5 MFI
same,fluorescence intensity,[2]; [29],45.5 MFI
same,fluorescence intensity,[3]; [30],16.8 MFI
same,fluorescence intensity,[3]; [31],16.5 MFI
same,fluorescence intensity,[3]; [24],16 MFI
same,fluorescence intensity,[3]; [25],16.5 MFI
same,fluorescence intensity,[3]; [26],15.5 MFI
same,fluorescence intensity,[3]; [27],17.5 MFI
same,fluorescence intensity,[3]; [28],21 MFI
same,fluorescence intensity,[3]; [29],50.5 MFI
same,fluorescence intensity,[4]; [30],17.5 MFI
same,fluorescence intensity,[4]; [31],18.8 MFI
same,fluorescence intensity,[4]; [24],19.5 MFI
same,fluorescence intensity,[4]; [25],19.5 MFI
same,fluorescence intensity,[4]; [26],18.5 MFI
same,fluorescence intensity,[4]; [27],19.5 MFI
same,fluorescence intensity,[4]; [28],23.5 MFI
same,fluorescence intensity,[4]; [29],41.2 MFI
same,fluorescence intensity,[5]; [30],19.5 MFI
same,fluorescence intensity,[5]; [31],19.8 MFI
same,fluorescence intensity,[5]; [24],19.5 MFI
same,fluorescence intensity,[5]; [25],18.5 MFI
same,fluorescence intensity,[5]; [26],19.5 MFI
same,fluorescence intensity,[5]; [27],21 MFI
same,fluorescence intensity,[5]; [28],23 MFI
same,fluorescence intensity,[5]; [29],45 MFI
same,fluorescence intensity,[6]; [30],17 MFI
same,fluorescence intensity,[6]; [31],15.5 MFI
same,fluorescence intensity,[6]; [24],15.5 MFI
same,fluorescence intensity,[6]; [25],16 MFI
same,fluorescence intensity,[6]; [26],16.2 MFI
same,fluorescence intensity,[6]; [27],16 MFI
same,fluorescence intensity,[6]; [28],24 MFI
same,fluorescence intensity,[6]; [29],182 MFI
same,fluorescence intensity,[7]; [30],13 MFI
same,fluorescence intensity,[7]; [31],13.5 MFI
same,fluorescence intensity,[7]; [24],14.5 MFI
same,fluorescence intensity,[7]; [25],13.5 MFI
same,fluorescence intensity,[7]; [26],13.5 MFI
same,fluorescence intensity,[7]; [27],15 MFI
same,fluorescence intensity,[7]; [28],14.8 MFI
same,fluorescence intensity,[7]; [29],20.8 MFI
same,fluorescence intensity,[8]; [30],19.5 MFI
same,fluorescence intensity,[8]; [31],18 MFI
same,fluorescence intensity,[8]; [24],18 MFI
same,fluorescence intensity,[8]; [25],19.8 MFI
same,fluorescence intensity,[8]; [26],20.5 MFI
same,fluorescence intensity,[8]; [27],20.5 MFI
same,fluorescence intensity,[8]; [28],22.5 MFI
same,fluorescence intensity,[8]; [29],26.5 MFI
same,fluorescence intensity,[9]; [30],17.5 MFI
same,fluorescence intensity,[9]; [31],18 MFI
same,fluorescence intensity,[9]; [24],19 MFI
same,fluorescence intensity,[9]; [25],17.5 MFI
same,fluorescence intensity,[9]; [26],20 MFI
same,fluorescence intensity,[9]; [27],16.2 MFI
same,fluorescence intensity,[9]; [28],25 MFI
same,fluorescence intensity,[9]; [29],32.5 MFI
same,fluorescence intensity,[10]; [30],18.5 MFI
same,fluorescence intensity,[10]; [31],17.5 MFI
same,fluorescence intensity,[10]; [24],17.5 MFI
same,fluorescence intensity,[10]; [25],17.5 MFI
same,fluorescence intensity,[10]; [26],19 MFI
same,fluorescence intensity,[10]; [27],18 MFI
same,fluorescence intensity,[10]; [28],21 MFI
same,fluorescence intensity,[10]; [29],37.5 MFI
same,fluorescence intensity,[11]; [30],16 MFI
same,fluorescence intensity,[11]; [31],15.8 MFI
same,fluorescence intensity,[11]; [24],15 MFI
same,fluorescence intensity,[11]; [25],14.2 MFI
same,fluorescence intensity,[11]; [26],14 MFI
same,fluorescence intensity,[11]; [27],15.8 MFI
same,fluorescence intensity,[11]; [28],18 MFI
same,fluorescence intensity,[11]; [29],31.5 MFI
same,fluorescence intensity,[12]; [30],25 MFI
same,fluorescence intensity,[12]; [31],24.5 MFI
same,fluorescence intensity,[12]; [24],24 MFI
same,fluorescence intensity,[12]; [25],24.2 MFI
same,fluorescence intensity,[12]; [26],25 MFI
same,fluorescence intensity,[12]; [27],26 MFI
same,fluorescence intensity,[12]; [28],31.5 MFI
same,fluorescence intensity,[12]; [29],48.5 MFI
same,fluorescence intensity,[13]; [30],21.5 MFI
same,fluorescence intensity,[13]; [31],22 MFI
same,fluorescence intensity,[13]; [24],21 MFI
same,fluorescence intensity,[13]; [25],21 MFI
same,fluorescence intensity,[13]; [26],21.5 MFI
same,fluorescence intensity,[13]; [27],21 MFI
same,fluorescence intensity,[13]; [28],22.2 MFI
same,fluorescence intensity,[13]; [29],29 MFI
same,fluorescence intensity,[14]; [30],28.5 MFI
same,fluorescence intensity,[14]; [31],26.8 MFI
same,fluorescence intensity,[14]; [24],26.8 MFI
same,fluorescence intensity,[14]; [25],26 MFI
same,fluorescence intensity,[14]; [26],26 MFI
same,fluorescence intensity,[14]; [27],25.8 MFI
same,fluorescence intensity,[14]; [28],29.5 MFI
same,fluorescence intensity,[14]; [29],34.5 MFI
same,fluorescence intensity,[15]; [30],24 MFI
same,fluorescence intensity,[15]; [31],24 MFI
same,fluorescence intensity,[15]; [24],25 MFI
same,fluorescence intensity,[15]; [25],25.5 MFI
same,fluorescence intensity,[15]; [26],24.5 MFI
same,fluorescence intensity,[15]; [27],24.5 MFI
same,fluorescence intensity,[15]; [28],26.5 MFI
same,fluorescence intensity,[15]; [29],37.5 MFI
same,fluorescence intensity,[16]; [30],30.5 MFI
same,fluorescence intensity,[16]; [31],32 MFI
same,fluorescence intensity,[16]; [24],31.5 MFI
same,fluorescence intensity,[16]; [25],30.5 MFI
same,fluorescence intensity,[16]; [26],31 MFI
same,fluorescence intensity,[16]; [27],32.2 MFI
same,fluorescence intensity,[16]; [28],37.5 MFI
same,fluorescence intensity,[16]; [29],50.5 MFI
same,fluorescence intensity,[17]; [30],20 MFI
same,fluorescence intensity,[17]; [31],18.5 MFI
same,fluorescence intensity,[17]; [24],20.2 MFI
same,fluorescence intensity,[17]; [25],19.2 MFI
same,fluorescence intensity,[17]; [26],20 MFI
same,fluorescence intensity,[17]; [27],20.5 MFI
same,fluorescence intensity,[17]; [28],24 MFI
same,fluorescence intensity,[17]; [29],28 MFI
same,fluorescence intensity,[18]; [30],23.5 MFI
same,fluorescence intensity,[18]; [31],25.5 MFI
same,fluorescence intensity,[18]; [24],24.5 MFI
same,fluorescence intensity,[18]; [25],22.5 MFI
same,fluorescence intensity,[18]; [26],25 MFI
same,fluorescence intensity,[18]; [27],25 MFI
same,fluorescence intensity,[18]; [28],33.5 MFI
same,fluorescence intensity,[18]; [29],48.8 MFI
same,fluorescence intensity,[19]; [30],18.5 MFI
same,fluorescence intensity,[19]; [31],19.5 MFI
same,fluorescence intensity,[19]; [24],19 MFI
same,fluorescence intensity,[19]; [25],19.5 MFI
same,fluorescence intensity,[19]; [26],19 MFI
same,fluorescence intensity,[19]; [27],19 MFI
same,fluorescence intensity,[19]; [28],21.5 MFI
same,fluorescence intensity,[19]; [29],26 MFI
same,fluorescence intensity,[20]; [30],30.2 MFI
same,fluorescence intensity,[20]; [31],29.5 MFI
same,fluorescence intensity,[20]; [24],29 MFI
same,fluorescence intensity,[20]; [25],31 MFI
same,fluorescence intensity,[20]; [26],29 MFI
same,fluorescence intensity,[20]; [27],33 MFI
same,fluorescence intensity,[20]; [28],55 MFI
same,fluorescence intensity,[20]; [29],306 MFI
same,fluorescence intensity,[21]; [30],26.8 MFI
same,fluorescence intensity,[21]; [31],24.8 MFI
same,fluorescence intensity,[21]; [24],27 MFI
same,fluorescence intensity,[21]; [25],25.5 MFI
same,fluorescence intensity,[21]; [26],27.5 MFI
same,fluorescence intensity,[21]; [27],26 MFI
same,fluorescence intensity,[21]; [28],42 MFI
same,fluorescence intensity,[21]; [29],200 MFI
same,fluorescence intensity,[22]; [30],26 MFI
same,fluorescence intensity,[22]; [31],26.2 MFI
same,fluorescence intensity,[22]; [24],26.5 MFI
same,fluorescence intensity,[22]; [25],26.5 MFI
same,fluorescence intensity,[22]; [26],27.2 MFI
same,fluorescence intensity,[22]; [27],27.8 MFI
same,fluorescence intensity,[22]; [28],33.5 MFI
same,fluorescence intensity,[22]; [29],35.5 MFI
same,fluorescence intensity,[23]; [30],21 MFI
same,fluorescence intensity,[23]; [31],20.2 MFI
same,fluorescence intensity,[23]; [24],21.5 MFI
same,fluorescence intensity,[23]; [25],21 MFI
same,fluorescence intensity,[23]; [26],21 MFI
same,fluorescence intensity,[23]; [27],21.5 MFI

# No new results follow: an excerpt of the list.
binder,measurement,setting,value
4-127.5 (protein) chain 1: QVQLQESGPGLVKPSETLSLTCAVSGYSISSGYGWSWIRQPPGKGLEWIGYIGGSDSSTNYNPSLKSRVTISKDTSKNQLSLKLRSVTAADTAVYYCGSRGAVAGLGGLDSWGQGLLVTVSS chain 2: QSVLTQPPSVSGAPGQRVTISCTGSSSNIGAGYGVQWYQQLPGTAPKLLIYENNKRPSGVFDRFSGSQSGTSGSLTITGLQSEDEADYYCQSYDSSLKAVLFGGGTRLTVL,fluorescence intensity,[21]; [24],27 MFI
same,fluorescence intensity,[21]; [25],25.5 MFI
same,fluorescence intensity,[21]; [26],27.5 MFI
same,fluorescence intensity,[21]; [27],26 MFI
same,fluorescence intensity,[21]; [28],42 MFI
